# The supplement of paper PMC8728848
# The list shows a part of the results.
# B1: Latrophilin-3 (Homo sapiens), Q9HAR2 (protein)
# chain: MWPSQLLIFMMLLAPIIHAFSRAPIPMAVVRRELSCESYPIELRCPGTDVIMIESANYGRTDDKICDSDPAQMENIRCYLPDAYKIMSQRCNNRTQCAVVAGPDVFPDPCPGTYKYLEVQYECVPYKVEQKVFLCPGLLKGVYQSEHLFESDHQSGAWCKDPLQASDKIYYMPWTPYRTDTLTEYSSKDDFIAGRPTTTYKLPHRVDGTGFVVYDGALFFNKERTRNIVKFDLRTRIKSGEAIIANANYHDTSPYRWGGKSDIDLAVDENGLWVIYATEQNNGKIVISQLNPYTLRIEGTWDTAYDKRSASNAFMICGILYVVKSVYEDDDNEATGNKIDYIYNTDQSKDSLVDVPFPNSYQYIAAVDYNPRDNLLYVWNNYHVVKYSLDFGPLDSRSGQAHHGQVSYISPPIHLDSELERPSVKDISTTGPLGMGSTTTSTTLRTTTLSPGRSTTPSVSGRRNRSTSTPSPAVEVLDDMTTHLPSASSQIPALEESCEAVEAREIMWFKTRQGQIAKQPCPAGTIGVSTYLCLAPDGIWDPQGPDLSNCSSPWVNHITQKLKSGETAANIARELAEQTRNHLNAGDITYSVRAMDQLVGLLDVQLRNLTPGGKDSAARSLNKAMVETVNNLLQPQALNAWRDLTTSDQLRAATMLLHTVEESAFVLADNLLKTDIVRENTDNIKLEVARLSTEGNLEDLKFPENMGHGSTIQLSANTLKQNGRNGEIRVAFVLYNNLGPYLSTENASMKLGTEALSTNHSVIVNSPVITAAINKEFSNKVYLADPVVFTVKHIKQSEENFNPNCSFWSYSKRTMTGYWSTQGCRLLTTNKTHTTCSCNHLTNFAVLMAHVEVKHSDAVHDLLLDVITWVGILLSLVCLLICIFTFCFFRGLQSDRNTIHKNLCISLFVAELLFLIGINRTDQPIACAVFAALLHFFFLAAFTWMFLEGVQLYIMLVEVFESEHSRRKYFYLVGYGMPALIVAVSAAVDYRSYGTDKVCWLRLDTYFIWSFIGPATLIIMLNVIFLGIALYKMFHHTAILKPESGCLDNIKSWVIGAIALLCLLGLTWAFGLMYINESTVIMAYLFTIFNSLQGMFIFIFHCVLQKKVRKEYGKCLRTHCCSGKSTESSIGSGKTSGSRTPGRYSTGSQSRIRRMWNDTVRKQSESSFITGDINSSASLNREGLLNNARDTSVMDTLPLNGNHGNSYSIASGEYLSNCVQIIDRGYNHNETALEKKILKELTSNYIPSYLNNHERSSEQNRNLMNKLVNNLGSGREDDAIVLDDATSFNHEESLGLELIHEESDAPLLPPRVYSTENHQPHHYTRRRIPQDHSESFFPLLTNEHTEDLQSPHRDSLYTSMPTLAGVAATESVTTSTQTEPPPAKCGDAEDVYYKSMPNLGSRNHVHQLHTYYQLGRGSSDGFIVPPNKDGTPPEGSSKGPAHLVTSL
# What was measured:
# Experiment in all cases: glycan array binding signal (z-score within array); higher = stronger binding
# Details in all cases: glycan notation: IUPAC condensed, linker removed
# Fuc(a1-2)Gal = target: Fuc(a1-2)Gal
# Outline: (§1)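 The binding signal is a Z-score computed within each array. Data were drawn from 3228 arrays in the Consortium for Functional Glycomics database, restricted to those with a known protein sequence. Scores were averaged over arrays of the same protein sequence at different concentrations or buffers, and over linkers, and negative values can be taken as non-binding.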
# Fuc(a1-2)Gal(b1-3)GalNAc = target: Fuc(a1-2)Gal(b1-3)GalNAc
# Outline: as §1
# [1] = target: Fuc(a1-2)Gal(b1-3)GalNAc(a1-3)[Fuc(a1-2)]Gal(b1-4)Glc
# Outline: as §1
# [2] = target: Fuc(a1-2)Gal(b1-3)GalNAc(a1-3)[Fuc(a1-2)]Gal(b1-4)GlcNAc
# Outline: as §1
# [3] = target: Fuc(a1-2)Gal(b1-3)GalNAc(b1-3)Gal
# Outline: as §1
# [4] = target: Fuc(a1-2)Gal(b1-3)GalNAc(b1-3)Gal(a1-4)Gal(b1-4)Glc
# Outline: as §1
# [5] = target: Fuc(a1-2)Gal(b1-3)GalNAc(b1-4)[Neu5Ac(a2-3)]Gal(b1-4)Glc
# Outline: as §1
# Fuc(a1-2)Gal(b1-3)GlcNAc = target: Fuc(a1-2)Gal(b1-3)GlcNAc
# Outline: as §1
# [6] = target: Fuc(a1-2)Gal(b1-3)GlcNAc(b1-2)Man(a1-3)[Fuc(a1-2)Gal(b1-3)GlcNAc(b1-2)Man(a1-6)]Man(b1-4)GlcNAc(b1-4)GlcNAc
# Outline: as §1
# [7] = target: Fuc(a1-2)Gal(b1-3)GlcNAc(b1-2)Man(a1-3)[Fuc(a1-2)Gal(b1-3)GlcNAc(b1-2)Man(a1-6)]Man(b1-4)GlcNAc(b1-4)[Fuc(a1-6)]GlcNAc
# Outline: as §1
# [8] = target: Fuc(a1-2)Gal(b1-3)GlcNAc(b1-3)Gal(b1-4)Glc
# Outline: as §1
# [9] = target: Fuc(a1-2)Gal(b1-3)GlcNAc(b1-3)GalNAc
# Outline: as §1
# [10] = target: Fuc(a1-2)Gal(b1-3)GlcNAc(b1-3)[Fuc(a1-2)Gal(b1-3)GlcNAc(b1-6)]GalNAc
# Outline: as §1
# [11] = target: Fuc(a1-2)Gal(b1-3)GlcNAc(b1-3)[Fuc(a1-3)[Gal(b1-4)]GlcNAc(b1-6)]Gal(b1-4)Glc
# Outline: as §1
# [12] = target: Fuc(a1-2)Gal(b1-3)GlcNAc(b1-3)[Gal(b1-4)GlcNAc(b1-6)]Gal(b1-4)Glc
# Outline: as §1
# [13] = target: Fuc(a1-2)Gal(b1-3)GlcNAc(b1-3)[Neu5Ac(a2-6)Gal(b1-4)GlcNAc(b1-6)]Gal(b1-4)Glc
# Outline: as §1
# [14] = target: Fuc(a1-2)Gal(b1-3)GlcNAc6S
# Outline: as §1
# [15] = target: Fuc(a1-2)Gal(b1-3)[Fuc(a1-4)]GlcNAc
# Outline: as §1
# [16] = target: Fuc(a1-2)Gal(b1-3)[Fuc(a1-4)]GlcNAc(b1-2)Man(a1-3)[Fuc(a1-2)Gal(b1-3)[Fuc(a1-4)]GlcNAc(b1-2)Man(a1-6)]Man(b1-4)GlcNAc(b1-4)GlcNAc
# Outline: as §1
# [17] = target: Fuc(a1-2)Gal(b1-3)[Fuc(a1-4)]GlcNAc(b1-2)Man(a1-6)[Fuc(a1-2)Gal(b1-3)[Fuc(a1-4)]GlcNAc(b1-2)Man(a1-3)]Man(b1-4)GlcNAc(b1-4)[Fuc(a1-6)]GlcNAc
# Outline: as §1
# [18] = target: Fuc(a1-2)Gal(b1-3)[Fuc(a1-4)]GlcNAc(b1-3)[Fuc(a1-3)[Gal(b1-4)]GlcNAc(b1-6)]Gal(b1-4)Glc
# Outline: as §1
# [19] = target: Fuc(a1-2)Gal(b1-3)[Fuc(a1-4)]GlcNAc(b1-3)[Gal(b1-4)GlcNAc(b1-6)]Gal(b1-4)Glc
# Outline: as §1
# Fuc(a1-2)Gal(b1-4)Glc = target: Fuc(a1-2)Gal(b1-4)Glc
# Outline: as §1
# Fuc(a1-2)Gal(b1-4)Glc6S = target: Fuc(a1-2)Gal(b1-4)Glc6S
# Outline: as §1
# Fuc(a1-2)Gal(b1-4)GlcNAc = target: Fuc(a1-2)Gal(b1-4)GlcNAc
# Outline: as §1
# [20] = target: Fuc(a1-2)Gal(b1-4)GlcNAc(b1-2)Man
# Outline: as §1
# [21] = target: Fuc(a1-2)Gal(b1-4)GlcNAc(b1-2)Man(a1-3)[Fuc(a1-2)Gal(b1-4)GlcNAc(b1-2)Man(a1-6)]Man(b1-4)GlcNAc(b1-4)GlcNAc
# Outline: as §1
# [22] = target: Fuc(a1-2)Gal(b1-4)GlcNAc(b1-2)Man(a1-3)[Fuc(a1-2)Gal(b1-4)GlcNAc(b1-2)Man(a1-6)]Man(b1-4)GlcNAc(b1-4)[Fuc(a1-6)]GlcNAc
# Outline: as §1
# [23] = target: Fuc(a1-2)Gal(b1-4)GlcNAc(b1-2)[Fuc(a1-2)Gal(b1-4)GlcNAc(b1-4)]Man(a1-3)[Fuc(a1-2)Gal(b1-4)GlcNAc(b1-2)Man(a1-6)]Man(b1-4)GlcNAc(b1-4)GlcNAc
# Outline: as §1
# [24] = target: Fuc(a1-2)Gal(b1-4)GlcNAc(b1-3)Gal(b1-4)GlcNAc
# Outline: as §1
binder,measurement,setting,value
B1,glycan array binding signal (z-score),Fuc(a1-2)Gal,0.041
same,glycan array binding signal (z-score),Fuc(a1-2)Gal(b1-3)GalNAc,-0.639
same,glycan array binding signal (z-score),[1],0.661
same,glycan array binding signal (z-score),[2],-1.01
same,glycan array binding signal (z-score),[3],-0.64
same,glycan array binding signal (z-score),[4],-0.106
same,glycan array binding signal (z-score),[5],-0.493
same,glycan array binding signal (z-score),Fuc(a1-2)Gal(b1-3)GlcNAc,-0.169
same,glycan array binding signal (z-score),[6],-0.156
same,glycan array binding signal (z-score),[7],-0.243
same,glycan array binding signal (z-score),[8],-0.869
same,glycan array binding signal (z-score),[9],0.261
same,glycan array binding signal (z-score),[10],-0.608
same,glycan array binding signal (z-score),[11],-0.264
same,glycan array binding signal (z-score),[12],-0.734
same,glycan array binding signal (z-score),[13],1.49
same,glycan array binding signal (z-score),[14],-0.694
same,glycan array binding signal (z-score),[15],-0.277
same,glycan array binding signal (z-score),[16],1.09
same,glycan array binding signal (z-score),[17],1.64
same,glycan array binding signal (z-score),[18],1.12
same,glycan array binding signal (z-score),[19],1.73
same,glycan array binding signal (z-score),Fuc(a1-2)Gal(b1-4)Glc,0.892
same,glycan array binding signal (z-score),Fuc(a1-2)Gal(b1-4)Glc6S,0.194
same,glycan array binding signal (z-score),Fuc(a1-2)Gal(b1-4)GlcNAc,0.15
same,glycan array binding signal (z-score),[20],0.397
same,glycan array binding signal (z-score),[21],0.747
same,glycan array binding signal (z-score),[22],-0.56
same,glycan array binding signal (z-score),[23],-0.478
same,glycan array binding signal (z-score),[24],0.188

# Random excerpt: 2 entries already listed
binder,measurement,setting,value
B1,glycan array binding signal (z-score),[24],0.188
same,glycan array binding signal (z-score),Fuc(a1-2)Gal(b1-4)GlcNAc,0.15
